Laboratory results: PubChem BioAssay AID1347423 (Functional Genomics Laboratory (NCATS/FGL), 2020)
Screen size: about 52,000 sequences; about 210 (0.4%) were called active.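 The calls were made as follows: active = gene whose silencing raises cell survival under the drug, median off-target-corrected z-score across its silencing RNAs 2 or more; inactive = the rest.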 This is one part of the list.

Experiment: Resistance to Poly (ADP-Ribose) Polymerase inhibitor: Gene Identification via Genome-wide siRNA Screen
Settings: mouse BRCA2 R2336H ES cells, olaparib, CellTiter-Glo viability; stronger effect = higher value
In short: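 Mouse BRCA2 R2336H ES cells were reverse-transfected with siRNA (20 nM final), treated at 48 h with 500 nM olaparib, and read by CellTiter-Glo after 72 h. Scores: MAD-based z per siRNA, median per gene, seed off-target correction.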

| Sequence | z-score |
| --- | --- |
| GGAAGGAAGUCAUUUUUUCTT against 8430410K20Rik | inactive: -0.357 |
| GGAGAGACUUGAGAUUGUCTT against Ptx3 | inactive: -2.6 |
| GGUCUGGGACUGAAGCACUTT against Sec14l3 | inactive: -0.303 |
| GGCCAACUUGAGAUUGUCUTT against Wdr68 | inactive: 0.437 |
| GCCAUAUUCAAAUAACUGATT against Tor3a | inactive: -1.46 |
| GGAGAUUUUCAAGAGACUCTT against 0610010F05Rik | inactive: 0.657 |
| CGUGGGCUCUGUUGACAUUTT against Olfr492 | inactive: -0.593 |
| GGAAGUGUGACUUGAUUGCTT against AW413431 | inactive: -1.12 |
| GGAUCAACGGAUUUUAGAATT against AW146020 | inactive: 0.294 |
| GGAUAAGCCUUAAGGAAAATT against Stard5 | inactive: -0.778 |
| GGUGGUGGAUGAUGAAGACTT against Myo7a | inactive: -0.461 |
| GGAUGACCUCAAGUAUAAGTT against Mobkl2b | inactive: 0.546 |
| GCAACCUUCAUUCGUAUAUTT against BC068281 | inactive: -0.854 |
| GCCAAAAUCAAGAUUUGCUTT against Angptl3 | inactive: -0.371 |
| GGAAGCAGAGAAAAUGUUCTT against Snrpa1 | inactive: -1.78 |
| CCUACGUCCAGUAGUGCAGTT against D030015G18Rik | inactive: -0.0797 |
| GGUCGUGAUAUUAUUGGGUTT against Ddx47 | inactive: -0.0395 |
| GGCUAAGGAAUGUCAAUAATT against 4922503E23Rik | inactive: -0.503 |
| CCUGGAUACCAAUGAUGAATT against Gprk2l | inactive: -1.95 |
| UGGCCACGACCCUGAACUUTT against Ghrhr | inactive: 1.81 |
| GGCCAAAAUGGUGUUGUUCTT against Oas1c | inactive: 1.42 |
| GGCUUACAUACAUACUAUGTT against Ddx3y | inactive: 0.414 |
| GGAGAACUUCAACAAUGUCTT against Tesc | inactive: 0.0465 |
| GGCAAAAACCAGGAUGAAUTT against 4932431F02Rik | inactive: -0.0173 |
| GGUCCAAGUUACAGCAAAATT against V1rg3 | inactive: 2.16 |
| CCAAGUGAUCUACAGUGAUTT against Mrc2 | inactive: 0.379 |

| Sequence | z-score |
| --- | --- |
| GGUGGUAUCUGUAUUCUAUTT against Olfr1106 | inactive: 0.33 |
| GGUCUUCCAAGAAAAAGGCTT against a | inactive: 1.59 |
| GGCAUUUUCUAAUGGCUAUTT against C230086A09Rik | inactive: 0.373 |
| GGACCUCUUCCUGAUGGAUTT against Yap1 | inactive: -0.774 |
| GGGCCAGCAAGGAAAGAAUTT against Pitx2 | inactive: -1.73 |
| GGCUUACACAAAAAUCUGUTT against Camk2d | inactive: 0.128 |
| GGACUUUCUAAAUAGCUUCTT against Gucy1a3 | inactive: 3.09 |
| GGGAGACUUGUCAUGCACATT against Matp | inactive: 0.0324 |
| GGUUCAAAUAUCACAUUGATT against B230206H07Rik | inactive: -1.83 |
| CCCAGAAGCCUUAUCGUCUTT against 2410129H14Rik | inactive: 0.663 |
| GGAUGAUCAAGACAAGCAGTT against Og2x | inactive: 1.94 |
| GGAAAAGCAUCUUCUCUUUTT against Rnf141 | inactive: 0.548 |
| GGAGGAGACUAUUUUCGCCTT against P42pop | inactive: 0.525 |
| GGGCUUGAUUUGAUCCUGGTT against 4933425L06Rik | inactive: -0.126 |
| GGGCAUUUUAACCAAAUGATT against 9630025C22 | inactive: 0.576 |
| GCGACUCACUGGGAACCUUTT against Col9a3 | inactive: 0.448 |
| GGAAAAAGGAGAGAAUGAATT against 4933417K05Rik | inactive: -1.28 |
| GGUUGUGGAAUGCAUCGGATT against 1110019I14Rik | inactive: -1.76 |
| GGAUAAUGUGGUCAUAGUATT against Ap3m1 | inactive: -1.09 |
| GGAUAGCUCAUGAUGCUGUTT against Usp13 | inactive: 1.18 |
| CCCAAACCAAUUUGUGCCUTT against Add2 | inactive: -0.0473 |
| GGUGGUUUUAAAGUGCUGGTT against 9930019B18Rik | inactive: -0.707 |
| GGAGGAUCCUGCUAUUCCATT against 4930583K01Rik | inactive: -0.242 |
| GGAAGAAGGCAGUGCUGAUTT against Ap3d1 | inactive: -3.03 |
| GGAUCAGAUCUUGUGUGACTT against Trim16 | inactive: 1.1 |
| GGCACAACUCCCUUGUGAUTT against Tlr8 | inactive: -0.677 |

| Sequence | z-score |
| --- | --- |
| GGAGAACUAUUUCUUCAUCTT against 5730511K23Rik | inactive: 2.28 |
| GGAGAGAUGUCCACAGCCUTT against Smarcal1 | inactive: -1.25 |
| CCAUGGUUACCGUGUACUATT against Olfr1513 | inactive: -0.901 |
| GGAGCCUUCACGGGUAUCATT against Slc6a9 | inactive: -2.57 |
| GGAAAAUGAAGGUUCAGAATT against Pkib | inactive: -0.608 |
| GGAUCUCACCCAACAGGCUTT against Samd7 | inactive: 0.197 |
| GGCUUAUCAUACCUGGUUGTT against Olfr691 | inactive: -0.327 |
| CCAGUACAAAGCCACAAUATT against Rab7 | inactive: 0.465 |
| GCCCAUUAUGAAACUGAAGTT against Nfatc3 | inactive: -0.0888 |
| CCAAGCAAGUGGUUAACUUTT against Psat1 | inactive: -0.4 |
| CGAAUUCAAUGUGCAUUAGTT against E130009J12Rik | inactive: -1.85 |
| GGGCAGUGUACUGUUUAACTT against Rhpn1 | inactive: -0.781 |
| GGGAGCAAAAGCUUUACUUTT against Prlpi | inactive: 0.313 |
| GGUUCCUUCUUCAUCUUCCTT against 2310002J15Rik | inactive: -0.293 |
| GGAGGAAUUCCAAUGUUACTT against Mfi2 | inactive: -0.834 |
| GCCUAGAGACAUUUCUACCTT against Bcl2l10 | inactive: -0.603 |
| GCAGGAACAGCCUAAGAGATT against 2810481F14Rik | inactive: -0.0742 |
| GGAUGAAGAAACAAGAAAGTT against Tmc1 | inactive: 2.31 |
| GGCUUUGGAUUUGUCAAGUTT against Dazap1 | inactive: -0.253 |
| GGAUGUGAAAUUCAAGCUUTT against Dhx34 | inactive: 0.0639 |
| GGCAAUGUUACCAUUCACUTT against Il6ra | inactive: -1.5 |
| GUUUUAGUGUGGCUGCAUUTT against Gsta2 | inactive: -0.201 |
| GGAAGGUGAUAUCUUAUGUTT against Elmo3 | inactive: -0.671 |
| GGAAGUUGCGCCUAUGGAATT against Dhrs8 | inactive: 0.285 |
| CCUCGUGGUGAAAAUCAACTT against Lpin3 | inactive: -0.69 |
| GGACUUUCUGAUAAAGAACTT against Mmaa | inactive: 1.66 |

Shown with tabs: entries from further up
Sequence	z-score
GGAGAGAUGUCCACAGCCUTT against Smarcal1	inactive: -1.25
CCAUGGUUACCGUGUACUATT against Olfr1513	inactive: -0.901
GGAGCCUUCACGGGUAUCATT against Slc6a9	inactive: -2.57
GGAAAAUGAAGGUUCAGAATT against Pkib	inactive: -0.608
GGAUCUCACCCAACAGGCUTT against Samd7	inactive: 0.197

The listing continues.

| Sequence | z-score |
| --- | --- |
| CCUCAGUUUGAACUUGAGATT against AI429613 | inactive: 2.98 |
| GGAUUAUGGUCUCAUUGUCTT against 4930539P14Rik | inactive: 0.794 |
| GGAUGUGAACAUCGAGGACTT against Il1f10 | inactive: 0.139 |
| GGUACACCUUCCUUCCCUUTT against Gcs1 | inactive: 1.24 |
| CCCACUACUGUAAGACAUGTT against Trim46 | inactive: 0.267 |
| GGCCCAUCCUGAAACCAAATT against 9230106L14Rik | inactive: 0.296 |
| GGCAGUGGUUAAAGGUUCCTT against Lrp6 | inactive: 0.365 |
| GCAGUAUAUCCUACAUUGGTT against Olfr510 | active: 1.69 |
| CCUACGAAGAAGAAGAGAUTT against Zfp67 | inactive: -0.193 |
| GGGCCAGCAUGUUAUCUGUTT against Myst1 | inactive: -2.13 |
| GCUUCUUUUUGCUGAUGACTT against V1ra6 | inactive: 0.756 |
| CCUGAGGUGCAGGACUAAUTT against AI875199 | inactive: 1.65 |
| GCAAAAGUUAACGAUUUCCTT against Wdr41 | inactive: 0.44 |
| GGCAACAUUGCUGUCGUUCTT against 5730537D05Rik | inactive: -1.01 |
| GGAUUCCUCUAACACAUUUTT against Keg1 | inactive: -2.47 |
| GGAAAUGACUCUCUAUGGCTT against Cyp4f13 | inactive: -0.0583 |
| CCUUUUCAAGCUAACAACATT against Gba2 | inactive: 0.878 |
| CCAAUAAAAUUGGUGUUCCTT against H13 | inactive: -0.423 |
| CCUUAGCCACUUUUUGGCCTT against Dhrsx | inactive: 0.142 |
| GCGAAUUCGUGAGAAGAGCTT against Ripk4 | inactive: -0.624 |
| GCAUAUUGGCUCAUCCUUUTT against Anapc2 | inactive: 1.07 |
| GGUUACGUUGUACGAAAUCTT against Nt5c1b | inactive: 0.813 |
| GGUGACCCACUACUGUAAGTT against Trim46 | inactive: -0.262 |
| GUGCUACAUUCUGUCGGGATT against 1110025I09Rik | inactive: -0.105 |
| GGUAGCAUAGGCUAGCAUATT against Crcp | inactive: 1.02 |
| GGAAUGAAUAAAGCUACUUTT against Fah | inactive: -0.522 |

Pulled one by one from the list above:

| Sequence | z-score |
| --- | --- |
| GGCAGUGGUUAAAGGUUCCTT against Lrp6 | inactive: 0.365 |
| CGUGGGCUCUGUUGACAUUTT against Olfr492 | inactive: -0.593 |
